No constants are given. Whether binding was seen depends on the method and setting. In cells and extracts the contact can be indirect. Some results given as binding are weak or reduced against the parent protein; the word gives no strength.
Molecular target: androgen receptor (UniProt P10275)
Experiment: GST pull-down

By UniProt entry, the sequences of proteins in these tests, tags left out.
UniProt P10275: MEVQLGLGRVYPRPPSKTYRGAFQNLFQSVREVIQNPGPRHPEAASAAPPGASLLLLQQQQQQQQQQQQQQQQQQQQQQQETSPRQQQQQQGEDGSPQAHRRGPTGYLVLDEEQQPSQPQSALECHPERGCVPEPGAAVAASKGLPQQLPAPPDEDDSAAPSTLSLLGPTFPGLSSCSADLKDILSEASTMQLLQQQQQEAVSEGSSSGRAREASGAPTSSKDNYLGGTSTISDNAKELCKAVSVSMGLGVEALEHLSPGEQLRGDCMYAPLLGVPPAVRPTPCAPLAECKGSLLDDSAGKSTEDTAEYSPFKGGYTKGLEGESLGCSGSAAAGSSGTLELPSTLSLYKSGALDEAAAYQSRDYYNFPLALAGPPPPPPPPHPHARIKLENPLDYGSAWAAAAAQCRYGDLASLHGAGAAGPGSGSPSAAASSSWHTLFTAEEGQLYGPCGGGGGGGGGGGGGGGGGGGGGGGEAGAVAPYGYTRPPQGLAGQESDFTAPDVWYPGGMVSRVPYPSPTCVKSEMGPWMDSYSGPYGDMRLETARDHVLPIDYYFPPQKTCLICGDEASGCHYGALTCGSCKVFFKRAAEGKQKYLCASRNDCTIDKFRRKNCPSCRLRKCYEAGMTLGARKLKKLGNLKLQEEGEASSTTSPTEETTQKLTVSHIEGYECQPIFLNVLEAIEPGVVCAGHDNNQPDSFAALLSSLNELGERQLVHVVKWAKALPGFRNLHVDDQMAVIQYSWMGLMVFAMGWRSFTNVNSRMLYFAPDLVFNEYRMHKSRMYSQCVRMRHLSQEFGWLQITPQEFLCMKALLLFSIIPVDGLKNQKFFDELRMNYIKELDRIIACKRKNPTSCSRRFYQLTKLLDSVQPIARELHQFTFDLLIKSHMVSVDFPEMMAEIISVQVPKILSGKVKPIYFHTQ

B1: Prostate Derived Ets Factor (PDEF), full length (protein)
chain: MGSASPGLSSVSPSHLLLPPDTVSRTGLEKAAAGAVGLERRDWSPSPPATPEQGLSAFYLSYFDMLYPEDSSWAAKAPGASSREEPPEEPEQCPVIDSQAPAGSLDLVPGGLTLEEHSLEQVQSMVVGEVLKDIETACKLLNITADPMDWSPSNVQKWLLWTEHQYRLPPMGKAFQELAGKELCAMSEEQFRQRSPLGGDVLHAHLDIWKSAAWMKERTSPGAIHYCASTSEESWTDSEVDSSCSGQPIHLWQFLKELLLKPHSYGRFIRWLNKEKGIFKIEDSAQVARLWGIRKNRPAMNYDKLSRSIRQYYKKGIIRKPDISQRLVYQFVHPI
In the case of B1, the binding is reported as “binds”.

Source: patent publication US20040197345A1
